{"source": "patent US20040022870A1", "about": "“Immunogenic TLP composition” (priority 1996, published 2004)", "test_system": "cytotoxic CD8 lymphocytes", "assay": "Stimulation of cytotoxic CD8 lymphocytes by synthetic polypeptide", "assay_type": "cell-based, human", "note": "At least one peptide structure holds a part that was inferred or is arguable (an end, a ring closure or a residue). Where a SMILES comes first, the peptide text is derived from it.", "data": [{"smiles": "CC[C@H](C)[C@H](NC(=O)[C@H](CO)NC(=O)[C@H](C)NC(=O)[C@H](CCC(=O)O)NC(=O)[C@H](CCCCN)NC(=O)[C@H](CC(N)=O)NC(=O)[C@@H](NC(=O)[C@@H](N)CCCNC(=N)N)[C@@H](C)O)C(=O)O", "note": "[SEQ ID NO: 1, ArgThrAsnLysGluAlaSerIle] (H-RTNKEASI-OH; N-terminus and C-terminus assumed)", "values": [{"measurement": "immunogenic abilities", "value": "excellent immunogenic abilities"}]}]}
